Test results as given in PubChem BioAssay AID1117319 (Southern Research Institute, 2015).
Several values for one entry are separate records, joined by “and”; a condition that tells them apart may be missing. Equal values may be shown once. Screen size: about 260,000 compounds; about 1,500 (0.58%) were called active. This list was built around the results that the source calls inconclusive (neither active nor inactive); the mix of calls is not that of the screen.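 Rule for the calls: active = inhibition above a set limit at one or more doses, reproduced on every date tested; inconclusive = results disagree between test dates, or hit never tested in dose response; inactive = the rest.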

Protein sequences, listed by entry. Tags and fused reporters are not part of them. Lines headed by an entry give the natural chain unless they say otherwise; changes in a name come on top.
UniProt P69720: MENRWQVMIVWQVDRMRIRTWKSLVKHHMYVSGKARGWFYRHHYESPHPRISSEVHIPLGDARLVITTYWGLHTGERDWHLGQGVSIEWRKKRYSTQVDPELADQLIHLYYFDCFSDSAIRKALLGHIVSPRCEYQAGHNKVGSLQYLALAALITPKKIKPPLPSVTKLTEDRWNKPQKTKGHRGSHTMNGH
UniProt P69721: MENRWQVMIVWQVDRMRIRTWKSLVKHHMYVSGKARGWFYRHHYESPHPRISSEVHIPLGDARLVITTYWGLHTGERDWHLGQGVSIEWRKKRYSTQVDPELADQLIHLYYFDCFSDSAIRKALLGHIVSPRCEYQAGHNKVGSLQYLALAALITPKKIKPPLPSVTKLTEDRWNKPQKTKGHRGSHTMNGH
UniProt P69722: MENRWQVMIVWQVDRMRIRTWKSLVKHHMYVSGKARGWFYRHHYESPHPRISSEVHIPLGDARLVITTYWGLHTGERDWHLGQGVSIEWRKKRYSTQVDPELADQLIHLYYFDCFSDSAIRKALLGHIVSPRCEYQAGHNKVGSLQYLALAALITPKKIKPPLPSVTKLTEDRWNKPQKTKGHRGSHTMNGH
UniProt P69723: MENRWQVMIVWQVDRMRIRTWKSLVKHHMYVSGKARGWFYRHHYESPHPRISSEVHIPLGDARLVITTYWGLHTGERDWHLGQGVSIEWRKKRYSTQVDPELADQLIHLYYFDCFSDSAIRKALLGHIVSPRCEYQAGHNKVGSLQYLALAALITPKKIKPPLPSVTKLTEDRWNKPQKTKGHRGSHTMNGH
UniProt Q9HC16: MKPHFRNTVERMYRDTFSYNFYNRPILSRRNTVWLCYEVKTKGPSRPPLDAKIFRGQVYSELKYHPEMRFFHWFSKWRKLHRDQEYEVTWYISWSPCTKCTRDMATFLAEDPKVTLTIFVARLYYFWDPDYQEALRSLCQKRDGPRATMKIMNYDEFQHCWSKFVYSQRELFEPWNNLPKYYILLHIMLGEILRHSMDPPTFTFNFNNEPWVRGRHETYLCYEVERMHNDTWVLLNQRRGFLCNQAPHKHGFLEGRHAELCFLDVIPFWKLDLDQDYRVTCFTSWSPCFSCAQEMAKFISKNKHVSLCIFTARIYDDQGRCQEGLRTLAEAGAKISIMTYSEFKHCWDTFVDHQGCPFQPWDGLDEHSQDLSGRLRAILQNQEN

Biological target: Virion infectivity factor (Human immunodeficiency virus type 1 group M subtype B (isolate BH10)) + Virion infectivity factor (Human immunodeficiency virus type 1 group M subtype B (isolate BRU/LAI)) + Virion infectivity factor (Human immunodeficiency virus type 1 group M subtype B (isolate PCV12)) + Virion infectivity factor (Human immunodeficiency virus type 1 group M subtype B (isolate HXB2)) + DNA dC->dU-editing enzyme APOBEC-3G (Homo sapiens) (UniProt P69720+P69721+P69722+P69723+Q9HC16)
Assay: inhibitors of Vif binding to APOBEC3G peptide, primary screen, biochemical, TR-FRET, GST-Vif 1-94, biotin-A3G peptide, dose response retest (AID 1117319);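 note: Vif residues 1-94 fused to GST binding biotinylated APOBEC3G peptide 110-148; 0% = full assay without inhibitor and 100% = GST in place of GST-Vif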
Settings: stronger effect = higher value

SMILES	inhibition
CCC(C)[C@H](NC(=O)NCc1ccc(OC)c(OC)c1)C(=O)O (some centres undefined)	inconclusive: 47.1%
CN1CCN(Cc2c(O)ccc3c2oc(=O)c2ccccc23)CC1	inconclusive: 37.3%
CCOc1cccc(CNc2ccc(O)cc2)c1OCc1ccc(Cl)cc1Cl	inconclusive: 85.7%
CCc1nc(N2CCN(C(=O)c3ccco3)CC2)c2oc3ccccc3c2n1	inconclusive: 61.5%
CN(C)N1C(N)=C(C#N)C(c2cccc([N+](=O)[O-])c2)C2=C1CC(C)(C)CC2=O (centres undefined)	inactive: -5.57%
CCN(CC)CCNC(=O)Cn1nc(Cc2cccnc2)c2ccccc2c1=O	inactive: -0.43%
CCN(CC)C(=O)Oc1ccc2c(=O)c(-c3ccc(OC)cc3)coc2c1	inconclusive: 37.4%
COc1ccccc1-c1coc2c(CN3CCCC(C)C3)c(O)ccc2c1=O (centres undefined)	inactive: -11.2%
Cc1cccc(Sc2c([N+](=O)[O-])ncn2C)c1	inconclusive: 60.9%
COc1ccc(N(C(=O)c2csnn2)C(C(=O)NC2CCCC2)c2cccs2)cc1 (centres undefined)	inconclusive: 58.3%
CCOC(=O)C(Cc1ccccc1)C(=O)Nc1nccs1 (centres undefined)	inconclusive: 26.3%
CCSc1nnc(-c2ccccc2NC(C)=O)c(=O)[nH]1	inconclusive: 33.1%
Cc1ccc(NS(=O)(=O)c2cc(NC(=O)c3cc(=O)[nH]c(=O)[nH]3)ccc2Cl)c(C)c1	inconclusive: 48.8%
CCC(C)NC(=O)C1CCN(S(=O)(=O)c2ccc(Br)s2)CC1 (centres undefined)	inconclusive: 41.5%
COc1ccc(/C=C/C(=O)c2cc(F)ccc2OC(=O)c2ccccc2OC)cc1OC	inconclusive: 39.3%
CCCCc1cc(=O)oc2cc(C)c(CN3CCCC3)c(O)c12	inconclusive: 58.2%
O=c1[nH]nc(Cc2ccc3ccccc3n2)c2ccccc12	inactive: -4.55%
COc1ccccc1N1CCN(C(=O)c2ccc3c(Cl)c4c(nc3c2)CCCC4)CC1	inconclusive: 47.5%
CCCCn1nnnc1NCc1ccc(OC)c(OC)c1OC	inconclusive: 40.7%
Clc1cc(Cl)cc(C2=NCCC(c3ccccc3)O2)c1 (centres undefined)	inconclusive: 41.3%
Cc1nc2ccccc2n1CC(=O)NCc1ccccc1	inconclusive: 57.7%
CCOC(=O)c1cc2c(C)n(-c3ccc(OCC)cc3)c(C)c2ccc1=O	inactive: 27.2%
C=CCSc1nc2sc3c(c2c(=O)n1CC)CCC3	inactive: 6.31%

Reformatted bar-delimited: 5 of the compounds above
SMILES | inhibition
CCc1nc(N2CCN(C(=O)c3ccco3)CC2)c2oc3ccccc3c2n1 | inconclusive: 61.5%
CCN(CC)C(=O)Oc1ccc2c(=O)c(-c3ccc(OC)cc3)coc2c1 | inconclusive: 37.4%
COc1ccccc1-c1coc2c(CN3CCCC(C)C3)c(O)ccc2c1=O (centres undefined) | inactive: -11.2%
COc1ccc(N(C(=O)c2csnn2)C(C(=O)NC2CCCC2)c2cccs2)cc1 (centres undefined) | inconclusive: 58.3%
CCSc1nnc(-c2ccccc2NC(C)=O)c(=O)[nH]1 | inconclusive: 33.1%

Following part

SMILES	inhibition
O=C(Nc1ccc(Br)cc1F)c1ccncc1	inconclusive: 61.6%
Cc1onc(-c2c(Cl)cccc2Cl)c1C(=O)N=S(C)(=O)c1ccccc1 (centres undefined)	inconclusive: 56.1%
Cn1cc(CNC(=O)CC2C(=O)NCCN2CC(C)(C)C)cn1 (centres undefined)	inconclusive: 44.3%
Cc1cc2c(cc(C(=O)NCc3cccnc3)n2Cc2ccc(Cl)cc2)o1	inconclusive: 38.4%
Cc1cccc(-n2c(SCC(=O)O)nc3sc4c(c3c2=O)CCCC4)c1	inconclusive: 48.3%
COCCSc1nc2c(c(=O)[nH]c(=O)n2C)n1Cc1cccc(C)c1	inconclusive: 61%
O=C(NCc1ccco1)C(c1ccco1)N(Cc1cccs1)C(=O)Cn1nnc2ccccc21 (centres undefined)	inconclusive: 39.1%
O=C(O)/C=C/C(=O)N1Cc2cc3ccccc3nc2C1	inconclusive: 59.6%
CCOC(=O)COc1ccc(S(=O)(=O)NCc2ccco2)cc1	inconclusive: 34.7%
COc1ccc([N+](=O)[O-])cc1COc1cc(C)cc2oc(=O)cc(-c3ccccc3)c12	inconclusive: 41.5%
Cc1ccccc1N1C(=O)C(Oc2ccc(Cl)cc2)C1CNC(C)(C)C (centres undefined)	inconclusive: 40.4%
O=C(Nn1cnc2ccccc2c1=O)c1ccc([N+](=O)[O-])cc1	inactive: -7.54%
CC(C)(C)c1ccc(OCc2nc(-c3ccccn3)no2)c(Br)c1	inconclusive: 53.4%
COC(=O)c1c(NC(=O)c2ccc(C)o2)sc2c1CCCCC2	inconclusive: 33.5%
COc1ccc(Cc2nnc(SCc3c(C)noc3C)n2C2CCCCC2)cc1OC	inconclusive: 43.1%
CNC(=S)NC1CC2CCC(C1)N2Cc1ccccc1 (centres undefined)	inconclusive: 49.8%
Cc1cc(NC(=O)Nc2ccc(Cl)cc2)no1	inconclusive: 37.8%
CCN1CCN(C(c2ccccc2)c2nnnn2Cc2ccccc2)CC1 (centres undefined)	inconclusive: 40.6%
CC(C)[C@H](NC(=O)c1c(F)cccc1F)C(=O)OCC(=O)NC(=O)NC1CCCC1	inactive: -7.96%
CSc1ccc(/C=N/Nc2ccc(Cl)c(C(=O)O)c2)cc1	inactive: 14.3%
O=C(NCC1CCCCC1)c1cc(S(=O)(=O)N2CCCCC2)ccc1N1CCOCC1	inconclusive: 36.6%
Cc1noc(/C=C/c2ccco2)c1S(=O)(=O)N1CCC(C(=O)N2CCc3ccccc32)CC1	inactive: 10.8%
CC(=O)c1ccc(C(=O)N2CCCC(CNC(=O)c3ccccc3Cl)C2)cc1 (centres undefined)	inconclusive: 36.8%

Looked up above.
CCOC(=O)C(Cc1ccccc1)C(=O)Nc1nccs1 (centres undefined) – inhibition: inconclusive: 26.3%
Cc1cccc(Sc2c([N+](=O)[O-])ncn2C)c1 – inhibition: inconclusive: 60.9%

(more compounds)

SMILES	inhibition
CCOC(=O)c1c(CN2CCC(C)CC2)oc2ccc(OC)cc12	inconclusive: 53.7%
COc1cc([N+](=O)[O-])ccc1NC(=O)CN1CCN(C(=O)c2ccco2)CC1	inconclusive: 45.6%
CC(=O)C1C(=O)c2c(cccc2[N+](=O)[O-])C1=Nc1ccc(S(N)(=O)=O)cc1 (centres undefined)	inconclusive: 43.3%
CC(=O)c1ccc(OCc2cc(C(=O)N(C)Cc3nc4c(C)cccc4[nH]3)no2)cc1	inconclusive: 35.9%
NC(=O)CSc1nc2ccc([N+](=O)[O-])cc2[nH]1	inconclusive: 50.3%
O=C(COC(=O)/C=C/c1cccc(Br)c1)NC1CCCCC1	inconclusive: 51.4%
COCCNC(=O)CN1C(=O)CC(C)(C)S(=O)(=O)c2ccccc21	inconclusive: 42%
CCOC(=O)c1cn(CC)c2cc(N3CCOCC3)c(F)cc2c1=O	inconclusive: 55.1%
OCc1cc(CO)c(O)c(CCc2ccccc2)n1	inconclusive: 55.6%
CCOC(=O)N1CCC(NC(=O)c2cc3c(-c4ccc(Cl)cc4)nn(C)c3s2)CC1	inconclusive: 55.5%
O=S(=O)(CC=CCS(=O)(=O)c1ccccc1)c1ccccc1	inactive: -17%
COc1ccc(N2C(=O)CC(Sc3nnc(-c4ccccc4)o3)C2=O)cc1 (centres undefined)	inconclusive: 34.9%
COC(=O)c1cc(Br)c(=O)n(CC(C)C)c1	inactive: 4.6%
CN(CC(=O)NCc1cccnc1)S(=O)(=O)c1ccccc1	inconclusive: 63.7%
Cc1cccc(OCC(=O)Nc2ccc(N3CCN(S(C)(=O)=O)CC3)cc2)c1	inconclusive: 45.1%
COc1cc(C2CC(=O)c3c(O)cc(O)cc3O2)ccc1O (centres undefined)	inactive: 9.19%
CC(=O)N1CCN(CCN=CC2=C(O)CC(C)(C)CC2=O)CC1	inconclusive: 55.9%
FC(F)(F)c1ccc2c(c1)NCC1CCCN21 (centres undefined)	inactive: 32.5%
CC(=O)NCCn1c(SCC(=O)NCC2CCCO2)nc2ccccc2c1=O (centres undefined)	inconclusive: 42.4%
Cc1cccc(OCC(=O)Nc2cc(C)on2)c1	inconclusive: 54.3%
CCC(=O)N1CCc2cc(S(=O)(=O)N3CCc4ccccc4C3)ccc21	inconclusive: 35.2%
O=C(NC(Cc1c[nH]c2ccccc12)c1nnc2n1CCCCC2)c1cccs1 (centres undefined)	inconclusive: 33.2%
COc1ccc(NC(=O)Cn2nnc(-c3ccccc3NC(=O)C3CC3)n2)cc1	inconclusive: 35.9%

SMILES	inhibition
CC(C)(C)C1=C(C#N)C(c2ccc3c(c2)OCO3)C(C#N)=C(N)O1 (centres undefined)	inconclusive: 49.1%
CN(C)c1ncc(/C=C2/C(=O)NC(=S)N(C3CCCCC3)C2=O)cn1	inactive: 1.75%
COc1cc(/C=N/NC(=O)C(C)Nc2n[nH]c(=O)[nH]c2=O)ccc1O (centres undefined)	inconclusive: 41.2%
Cc1ccc(Nc2c([N+](=O)[O-])ccc3c2=NC2(CCCCC2)N=3)cc1	inconclusive: 54.3%
COc1ccc(-n2cnnc2SCC(=O)NC2CCS(=O)(=O)C2)cc1 (centres undefined)	inconclusive: 33.9%
CCN(CC)c1ccc(/C=N/NC(=S)NCc2ccccc2)cc1	inconclusive: 56.5%
CCCOc1c(Br)cc(C(=O)OCC(=O)NC(=O)c2cccn2C)cc1OC	inconclusive: 33.1%
O=c1cc(COn2nnc3ccc(C(F)(F)F)cc32)nc2sccn12	inconclusive: 36.9%
CC(=O)Nc1ccc(S(=O)(=O)NC2(C(F)(F)F)NC(=O)N(CC(C)C)C2=O)cc1 (centres undefined)	inconclusive: 36.5%
COc1ccccc1N1CCN(CC(O)COc2ccc3c(c2)OCO3)CC1 (centres undefined)	inconclusive: 51.5%
Cc1ccc(-c2[nH]c3cc(C(=O)NCCCn4ccnc4)ccc3c(=O)c2O)cc1	inconclusive: 48.7%
CCOc1ccc2[nH]c(=O)c(CN(Cc3ccco3)C(CC)c3nnnn3Cc3ccccc3)cc2c1 (centres undefined)	inactive: 4.17% and inactive: 12.4%
Cc1nc(NC(=O)CSc2nc3cccnc3n2Cc2ccccc2)sc1C	inconclusive: 39.2%
Cc1nc(SCc2ccccc2)c2oc3ccccc3c2n1	inconclusive: 44.3%
COc1cc(S(=O)(=O)NCc2ccccn2)ccc1Cl	inconclusive: 52.3%
CCCCCC(=O)Nc1ccc(N2CCN(CC)CC2)c(Cl)c1	inconclusive: 58%
O=C(NCCCN1CCOCC1)c1ccc(Br)cc1Br	inconclusive: 34.1%
C=CCN1C=C2C(=O)C(C)(OC(=O)c3cccs3)C(=O)C=C2C=C1CCCC(=O)OC (centres undefined)	inconclusive: 57.9%
NC1=NC(=O)C(=Cc2ccccc2)S1	inactive: 1.08%
Oc1c(Cl)cc(Cl)c2c1NCCC2	inconclusive: 46.5%
